Laboratory results: PubChem BioAssay AID1224830 (NIAID, 2016)
Here is a random part of about 18,000 reagents. In the full data, about 2,900 (16%) are marked active. 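Calls are made per well; low scores hint the gene aids the LPS response, high scores that it dampens it.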 Repeated entries: four replicate wells of each siRNA pool.

Aim: 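Host factors that control LPS-induced TNF expression in human macrophages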 (primary screen)
System: human THP-1 monocytic leukaemia cells, TNF dual-luciferase reporter clone, PMA-differentiated to macrophage-like cells
Reagent: siRNA pool against human genes, 50 nM
Time to read-out: LPS for 4 h, given about 3 days after siRNA transfection
Conditions: bacterial LPS (TLR4 ligand), 10 ng/ml
Measured: 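TNF firefly reporter luminescence divided by renilla, normalised to the plate median, then turned into a robust z-score for each replicate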
Direction: TNF reporter robust z-score: higher = stronger TNF reporter response to LPS
Hit rule: 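a well is active when its z-score exceeds 2.8 or falls below -1.5; control wells carry no call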

gene | TNF reporter robust z-score | call
MID2 (midline 2) | -1.88 | active
MID2 (midline 2) | -0.06 | inactive
MID2 (midline 2) | -1.44 | inactive
MID2 (midline 2) | -0.85 | inactive
WASL (WASP like actin nucleation promoting factor) | 1.96 | inactive
WASL (WASP like actin nucleation promoting factor) | 0.92 | inactive
WASL (WASP like actin nucleation promoting factor) | -0.46 | inactive
WASL (WASP like actin nucleation promoting factor) | -0.63 | inactive
PRPF40B (pre-mRNA processing factor 40B) | -0.76 | inactive
PRPF40B (pre-mRNA processing factor 40B) | -0.2 | inactive
PRPF40B (pre-mRNA processing factor 40B) | -0.73 | inactive
PRPF40B (pre-mRNA processing factor 40B) | -0.91 | inactive
LNPEP (leucyl and cystinyl aminopeptidase) | 1.21 | inactive
LNPEP (leucyl and cystinyl aminopeptidase) | 0.69 | inactive
LNPEP (leucyl and cystinyl aminopeptidase) | 1.61 | inactive
LNPEP (leucyl and cystinyl aminopeptidase) | -0.46 | inactive
ADPRM (ADP-ribose/CDP-alcohol diphosphatase, manganese dependent) | -0.5 | inactive
ADPRM (ADP-ribose/CDP-alcohol diphosphatase, manganese dependent) | -0.08 | inactive
ADPRM (ADP-ribose/CDP-alcohol diphosphatase, manganese dependent) | 0.11 | inactive
ADPRM (ADP-ribose/CDP-alcohol diphosphatase, manganese dependent) | -0.02 | inactive

The list goes on, starting with the last 5 of the part before.
gene | TNF reporter robust z-score | call
LNPEP (leucyl and cystinyl aminopeptidase) | -0.46 | inactive
ADPRM (ADP-ribose/CDP-alcohol diphosphatase, manganese dependent) | -0.5 | inactive
ADPRM (ADP-ribose/CDP-alcohol diphosphatase, manganese dependent) | -0.08 | inactive
ADPRM (ADP-ribose/CDP-alcohol diphosphatase, manganese dependent) | 0.11 | inactive
ADPRM (ADP-ribose/CDP-alcohol diphosphatase, manganese dependent) | -0.02 | inactive
CCL15 (C-C motif chemokine ligand 15) | -1.44 | inactive
CCL15 (C-C motif chemokine ligand 15) | -0.87 | inactive
CCL15 (C-C motif chemokine ligand 15) | -0.27 | inactive
CCL15 (C-C motif chemokine ligand 15) | -0.77 | inactive
MAGEF1 (MAGE family member F1) | 0.86 | inactive
MAGEF1 (MAGE family member F1) | -0.37 | inactive
MAGEF1 (MAGE family member F1) | -1.57 | active
MAGEF1 (MAGE family member F1) | -0.89 | inactive
WIPF2 (WAS/WASL interacting protein family member 2) | -1.03 | inactive
WIPF2 (WAS/WASL interacting protein family member 2) | -1.21 | inactive
WIPF2 (WAS/WASL interacting protein family member 2) | -1.42 | inactive
WIPF2 (WAS/WASL interacting protein family member 2) | -0.57 | inactive
MTA1 (metastasis associated 1) | 0 | inactive
MTA1 (metastasis associated 1) | 0.99 | inactive
MTA1 (metastasis associated 1) | -0.1 | inactive
MTA1 (metastasis associated 1) | -0.05 | inactive
NTF3 (neurotrophin 3) | 0.04 | inactive
NTF3 (neurotrophin 3) | 0.36 | inactive
NTF3 (neurotrophin 3) | 0.49 | inactive
NTF3 (neurotrophin 3) | -0.14 | inactive
ACTA2 (actin alpha 2, smooth muscle) | -0.81 | inactive
ACTA2 (actin alpha 2, smooth muscle) | -1.41 | inactive
ACTA2 (actin alpha 2, smooth muscle) | -1.36 | inactive
ACTA2 (actin alpha 2, smooth muscle) | -0.64 | inactive
NSMCE1 (NSE1 component of SMC5/6 complex) | -0.04 | inactive
NSMCE1 (NSE1 component of SMC5/6 complex) | -0.7 | inactive
NSMCE1 (NSE1 component of SMC5/6 complex) | 2.39 | inactive
NSMCE1 (NSE1 component of SMC5/6 complex) | -1.13 | inactive
